Test results: patent US20230348555A1 (H LEE MOFFITT CANCER CENTER AND RESEARCH INSTITUTE, published 2023)
Results are given in words; binding and its absence hold for the method and conditions named. Some binding calls cover weakened binding; strength is not graded here. Tags and fused reporters may be left off the sequences shown.

Chains of the proteins cited; added tags and fusions are not shown. Residues count along the entry.
UniProt P20138, residues 18-364: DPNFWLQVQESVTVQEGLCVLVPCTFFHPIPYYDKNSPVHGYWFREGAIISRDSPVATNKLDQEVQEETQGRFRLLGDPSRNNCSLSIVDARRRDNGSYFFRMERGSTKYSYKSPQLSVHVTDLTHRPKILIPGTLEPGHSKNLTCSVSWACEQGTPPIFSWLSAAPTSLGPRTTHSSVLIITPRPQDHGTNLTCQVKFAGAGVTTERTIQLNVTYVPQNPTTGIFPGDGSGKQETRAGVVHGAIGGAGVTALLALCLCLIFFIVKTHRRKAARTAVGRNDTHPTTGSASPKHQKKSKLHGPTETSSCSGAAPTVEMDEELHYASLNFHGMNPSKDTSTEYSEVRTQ

Assays:
[1] = target: T1, CD33 (Siglec 3) expressed in cells (human, UniProt P20138 18-364); test: immunofluorescence (anti-DDK-APC) of SJCRH30 cells stably transfected with CD33 and incubated with rhS100A9-DDK; vector-transfected cells as control (FIG. 3G)
T1 construct: whole, on cells; In the co-immunoprecipitations it stood in cell lysates; also called SJCRH30-CD33 cells; CD33 on MDS-MDSC

[2] = target: T1, CD33 (Siglec 3) expressed in cells; test: immunofluorescence co-localization (CD33-FITC, anti-DDK-APC) on MDS-MDSC treated with 1 µg rhS100A9 (FIG. 3M)

binding [1]: binds
binding [2]: binds
B1: recombinant human (rh) S100A9 tagged with DDK (ligand)
chain: MTCKMSQLERNIETIINTFHQYSVKLGHPDTLNQGEFKELVRKDLQNFLKKENKNEKVIEHIMEDLDTNADKQLSFEEFIMLMARLTWASHEKMHEGDEGPGHHHKPGLGEGTPDYKDDDDK
